Laboratory results: paper doi:10.1101/2020.02.20.958942
Results are given in words; binding and its absence hold for the method and conditions named. Binding seen in cells or lysates may run through a third protein. Some entries that bind do so weakly or less than the wild type.

Target: T1, Caspase 8 (mouse (endogenous in 3T3 fibroblasts)) (UniProt O89110)
T1 sequence: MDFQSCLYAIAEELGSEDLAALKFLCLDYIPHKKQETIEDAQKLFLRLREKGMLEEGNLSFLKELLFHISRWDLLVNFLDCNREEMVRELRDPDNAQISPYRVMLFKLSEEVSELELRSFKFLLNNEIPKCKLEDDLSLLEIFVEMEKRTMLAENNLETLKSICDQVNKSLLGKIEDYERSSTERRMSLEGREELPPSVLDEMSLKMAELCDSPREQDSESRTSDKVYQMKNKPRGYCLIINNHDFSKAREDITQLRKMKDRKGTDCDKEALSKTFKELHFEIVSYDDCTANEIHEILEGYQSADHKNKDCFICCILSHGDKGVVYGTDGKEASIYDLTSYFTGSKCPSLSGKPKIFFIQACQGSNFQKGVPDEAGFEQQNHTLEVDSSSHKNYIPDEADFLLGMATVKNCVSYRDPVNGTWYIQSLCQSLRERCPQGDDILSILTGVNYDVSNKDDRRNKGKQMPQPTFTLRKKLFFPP
Assay: proximity ligation

binding: binds
B1: Traf2 (protein, UniProt P39429 1-501)
chain: MAAASVTSPGSLELLQPGFSKTLLGTRLEAKYLCSACKNILRRPFQAQCGHRYCSFCLTSILSSGPQNCAACVYEGLYEEGISILESSSAFPDNAARREVESLPAVCPNDGCTWKGTLKEYESCHEGLCPFLLTECPACKGLVRLSEKEHHTEQECPKRSLSCQHCRAPCSHVDLEVHYEVCPKFPLTCDGCGKKKIPRETFQDHVRACSKCRVLCRFHTVGCSEMVETENLQDHELQRLREHLALLLSSFLEAQASPGTLNQVGPELLQRCQILEQKIATFENIVCVLNREVERVAVTAEACSRQHRLDQDKIEALSNKVQQLERSIGLKDLAMADLEQKVSELEVSTYDGVFIWKISDFTRKRQEAVAGRTPAIFSPAFYTSRYGYKMCLRVYLNGDGTGRGTHLSLFFVVMKGPNDALLQWPFNQKVTLMLLDHNNREHVIDAFRPDVTSSSFQRPVSDMNIASGCPLFCPVSKMEAKNSYVRDDAIFIKAIVDLTGL
